Results published in PubChem BioAssay AID186 (DTP/NCI, 2004).
The mice bore no tumour; each value counts animals alive of those treated. Survivors were counted at the toxicity check, usually on the fifth day, unless a day is given; later deaths do not show. Schedule codes are those of the source, read here as Q, the interval in days (D) or hours (H), X, the number of doses. Some doses were run more than once; their values stand side by side, smallest first.

System: B6D2F1 mice, nontumored toxicity test, survival
Experiment: NCI In Vivo Anticancer Drug Screen. Data for tumor model Nontumored Animals (Toxicity Test) in B6D2F1 (BDF1) mice

In the case of `CC(=O)NNC(=O)c1ccccn1`, the survivor count (dose: 4.0 mg/kg/injection, schedule: Q03HX024 (ip), vehicle: saline) is reported as 8 of 8, the survivor count (dose: 8.0 mg/kg/injection, schedule: Q03HX008 (ip), vehicle: saline) is reported as 8 of 8 and the survivor count (dose: 8.0 mg/kg/injection, schedule: Q03HX016 (ip), vehicle: saline) is reported as 8 of 8. The survivor count (dose: 8.0 mg/kg/injection, schedule: Q03HX024 (ip), vehicle: saline) was 8 of 8, the survivor count (dose: 16.0 mg/kg/injection, schedule: Q01DX012 (ip), vehicle: other) was 6 of 6 and the survivor count (dose: 16.0 mg/kg/injection, schedule: Q03HX008 (ip), vehicle: saline) was 8 of 8. For the same compound, the survivor count (dose: 16.0 mg/kg/injection, schedule: Q03HX016 (ip), vehicle: saline) was 8 of 8, the survivor count (dose: 16.0 mg/kg/injection, schedule: Q03HX024 (ip), vehicle: saline) was 8 of 8 and the survivor count (dose: 32.0 mg/kg/injection, schedule: Q01DX009 (ip), vehicle: saline) was 8 of 8. For the same compound, the survivor count (dose: 32.0 mg/kg/injection, schedule: Q01DX009 (oral), vehicle: saline) was 7 of 8, the survivor count (dose: 32.0 mg/kg/injection, schedule: Q01DX012 (ip), vehicle: other) was 6 of 6 and the survivor count (dose: 32.0 mg/kg/injection, schedule: Q03HX008 (ip), vehicle: saline) was 8 of 8. The survivor count (dose: 32.0 mg/kg/injection, schedule: Q03HX016 (ip), vehicle: saline) was 8 of 8, the survivor count (dose: 32.0 mg/kg/injection, schedule: Q03HX024 (ip), vehicle: saline) was 8 of 8 and the survivor count (dose: 32.0 mg/kg/injection, schedule: Q04DX003 (ip), vehicle: saline) was 8 of 8. The survivor count (dose: 64.0 mg/kg/injection, schedule: Q01DX001 (ip), vehicle: saline) was 8 of 8, the survivor count (dose: 64.0 mg/kg/injection, schedule: Q01DX001 (oral), vehicle: saline) was 7 of 8 and the survivor count (dose: 64.0 mg/kg/injection, schedule: Q01DX009 (ip), vehicle: saline) was 8 of 8. For the same compound, the survivor count (dose: 64.0 mg/kg/injection, schedule: Q01DX009 (oral), vehicle: saline) was 8 of 8, the survivor count (dose: 64.0 mg/kg/injection, schedule: Q01DX012 (ip), vehicle: other) was 6 of 6 and the survivor count (dose: 64.0 mg/kg/injection, schedule: Q03HX008 (ip), vehicle: saline) was 8 of 8. The survivor count (dose: 64.0 mg/kg/injection, schedule: Q03HX016 (ip), vehicle: saline) was 8 of 8, the survivor count (dose: 64.0 mg/kg/injection, schedule: Q03HX024 (ip), vehicle: saline) was 8 of 8 and the survivor count (dose: 64.0 mg/kg/injection, schedule: Q04DX003 (ip), vehicle: saline) was 8 of 8. For the same compound, the survivor count (dose: 64.0 mg/kg/injection, schedule: Q08DX002 (ip), vehicle: saline) was 8 of 8, the survivor count (dose: 128.0 mg/kg/injection, schedule: Q01DX001 (ip), vehicle: saline) was 8 of 8 and the survivor count (dose: 128.0 mg/kg/injection, schedule: Q01DX001 (oral), vehicle: saline) was 8 of 8. For the same compound, the survivor count (dose: 128.0 mg/kg/injection, schedule: Q01DX009 (ip), vehicle: saline) was 8 of 8, the survivor count (dose: 128.0 mg/kg/injection, schedule: Q01DX009 (oral), vehicle: saline) was 7 of 8 and the survivor count (dose: 128.0 mg/kg/injection, schedule: Q01DX012 (ip), vehicle: other) was 5 of 6. The survivor count (dose: 128.0 mg/kg/injection, schedule: Q04DX003 (ip), vehicle: saline) was 8 of 8, the survivor count (dose: 128.0 mg/kg/injection, schedule: Q08DX002 (ip), vehicle: saline) was 8 of 8 and the survivor count (dose: 256.0 mg/kg/injection, schedule: Q01DX001 (ip), vehicle: saline) was 8 of 8. The survivor count (dose: 256.0 mg/kg/injection, schedule: Q01DX001 (oral), vehicle: saline) was 8 of 8, the survivor count (dose: 256.0 mg/kg/injection, schedule: Q01DX009 (ip), vehicle: saline) was 4 of 8 and the survivor count (dose: 256.0 mg/kg/injection, schedule: Q01DX009 (oral), vehicle: saline) was 7 of 8. The survivor count (dose: 256.0 mg/kg/injection, schedule: Q04DX003 (ip), vehicle: saline) was 8 of 8, the survivor count (dose: 256.0 mg/kg/injection, schedule: Q08DX002 (ip), vehicle: saline) was 8 of 8 and the survivor count (dose: 512.0 mg/kg/injection, schedule: Q01DX001 (ip), vehicle: saline) was 0 of 8. For the same compound, the survivor count (dose: 512.0 mg/kg/injection, schedule: Q01DX001 (oral), vehicle: saline) was 0 of 8, the survivor count (dose: 512.0 mg/kg/injection, schedule: Q01DX009 (oral), vehicle: saline) was 0 of 8 and the survivor count (dose: 512.0 mg/kg/injection, schedule: Q04DX003 (ip), vehicle: saline) was 0 of 8. For the same compound, the survivor count (dose: 512.0 mg/kg/injection, schedule: Q08DX002 (ip), vehicle: saline) was 0 of 8 and the survivor count (dose: 1024.0 mg/kg/injection, schedule: Q01DX001 (oral), vehicle: saline) was 0 of 8.

With `CC[C@]1(O)C[C@H]2CN(CCc3c([nH]c4ccccc34)[C@@](C(=O)OC)(c3cc4c(cc3OC)N(C=O)[C@H]3[C@@](O)(C(=O)OC)[C@H](OC(C)=O)[C@]5(CC)C=CCN6CC[C@]43[C@@H]65)C2)C1` the survivor count (dose: 0.18 mg/kg/injection, schedule: Q01DX009 (ip), vehicle: saline) was 5 of 5, the survivor count (dose: 0.3 mg/kg/injection, schedule: Q01DX009 (ip), vehicle: saline) was 5 of 5 and the survivor count (dose: 0.36 mg/kg/injection, schedule: Q04DX003 (ip), vehicle: saline) was 5 of 5. The survivor count (dose: 0.38 mg/kg/injection, schedule: Q04DX003 (ip), vehicle: saline) was 4 of 4, the survivor count (dose: 0.5 mg/kg/injection, schedule: Q01DX009 (ip), vehicle: saline) was 5 of 5 and the survivor count (dose: 0.5 mg/kg/injection, schedule: Q04DX003 (ip), vehicle: water) was 4 of 4. For the same compound, the survivor count (dose: 0.54 mg/kg/injection, schedule: Q04DX003 (ip), vehicle: saline) was 5 of 5, the survivor count (dose: 0.6 mg/kg/injection, schedule: Q04DX003 (ip), vehicle: saline) was 5 of 5 and the survivor count (dose: 0.67 mg/kg/injection, schedule: Q04DX003 (ip), vehicle: saline) was 10 of 10. The survivor count (dose: 0.75 mg/kg/injection, schedule: Q04DX003 (ip), vehicle: saline) was 4 of 4, the survivor count (dose: 0.83 mg/kg/injection, schedule: Q01DX009 (ip), vehicle: saline) was 5 of 5 and the survivor count (dose: 0.9 mg/kg/injection, schedule: Q04DX003 (ip), vehicle: saline) was 5 of 5. For the same compound, the survivor count (dose: 1.0 mg/kg/injection, schedule: Q04DX003 (ip), vehicle: saline) was 10 of 10 and 5 of 5, the survivor count (dose: 1.0 mg/kg/injection, schedule: Q04DX003 (ip), vehicle: water) was 4 of 4 and the survivor count (dose: 1.0 mg/kg/injection, schedule: Q08DX002 (ip), vehicle: water) was 6 of 6. For the same compound, the survivor count (dose: 1.0 mg/kg/injection, schedule: Q08DX003 (ip), vehicle: water) was 6 of 6, the survivor count (dose: 1.5 mg/kg/injection, schedule: Q04DX003 (ip), vehicle: saline) was 10 of 10, 4 of 4, 5 of 5 and the survivor count (dose: 1.67 mg/kg/injection, schedule: Q04DX003 (ip), vehicle: saline) was 5 of 5. The survivor count (dose: 2.0 mg/kg/injection, schedule: Q04DX003 (ip), vehicle: water) was 4 of 4, the survivor count (dose: 2.0 mg/kg/injection, schedule: Q08DX002 (ip), vehicle: water) was 6 of 6 and the survivor count (dose: 2.0 mg/kg/injection, schedule: Q08DX003 (ip), vehicle: water) was 6 of 6. For the same compound, the survivor count (dose: 2.5 mg/kg/injection, schedule: Q04DX003 (ip), vehicle: saline) was 1 of 2, the survivor count (dose: 3.0 mg/kg/injection, schedule: Q04DX003 (ip), vehicle: saline) was 4 of 4 and the survivor count (dose: 4.0 mg/kg/injection, schedule: Q04DX003 (ip), vehicle: water) was 4 of 4. For the same compound, the survivor count (dose: 4.0 mg/kg/injection, schedule: Q08DX002 (ip), vehicle: water) was 6 of 6, the survivor count (dose: 4.0 mg/kg/injection, schedule: Q08DX003 (ip), vehicle: water) was 6 of 6 and the survivor count (dose: 8.0 mg/kg/injection, schedule: Q08DX002 (ip), vehicle: water) was 2 of 6. The survivor count (dose: 8.0 mg/kg/injection, schedule: Q08DX003 (ip), vehicle: water) was 5 of 6.

For `O=CC(NC(=O)N(CCCl)N=O)C(O)C(O)C(O)CO` (stereo unspecified), the survivor count (dose: 16.0 mg/kg/injection, schedule: Q01DX001 (ip), vehicle: saline) was 10 of 10, the survivor count (dose: 20.0 mg/kg/injection, schedule: Q01DX001 (ip), vehicle: saline) was 10 of 10 and the survivor count (dose: 24.0 mg/kg/injection, schedule: Q01DX001 (ip), vehicle: saline) was 10 of 10. The survivor count (dose: 28.0 mg/kg/injection, schedule: Q01DX001 (ip), vehicle: saline) was 10 of 10.
